Results as given in the supplement of paper PMC4604168 (melanoma cell lines).
This is one part of the list. Single values are uncertain, as repeats are few or missing.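 The apoptosis fraction was the count of cleaved-PARP antibody-stained nuclei relative to all DNA-stained nuclei, imaged in 1,536-well plates. Screening doses were set so most cells survived, and baseline and induced cleaved-PARP levels vary greatly across cell lines.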

What was measured:
Test in all cases: cleaved PARP positive nuclei fraction relative to DMSO control; melanoma cells; higher = more apoptosis
Conditions in all cases: library dose: low library concentration; 72 h
501Mel = system: 501Mel
A101D = system: A101D
A2058 = system: A2058
A375 = system: A375
C32 = system: C32
CBRC008 = system: CBRC008 (line from a melanoma biopsy)
CBRC013 = system: CBRC013 (line from a melanoma biopsy)
CBRC014 = system: CBRC014 (line from a melanoma biopsy)
CBRC016 = system: CBRC016 (line from a melanoma biopsy)
CBRC017 = system: CBRC017 (line from a melanoma biopsy)
COLO792 = system: COLO792
COLO800 = system: COLO800
COLO829 = system: COLO829
G361 = system: G361
IPC-298 = system: IPC-298
IST-MEL1 = system: IST-MEL1
LB2518-MEL = system: LB2518-MEL
LOXIMVI = system: LOXIMVI
MEL-HO = system: MEL-HO

Structure (SMILES)	cleaved PARP positive nuclei fraction (501Mel)	cleaved PARP positive nuclei fraction (A101D)	cleaved PARP positive nuclei fraction (A2058)	cleaved PARP positive nuclei fraction (A375)	cleaved PARP positive nuclei fraction (C32)	cleaved PARP positive nuclei fraction (CBRC008)	cleaved PARP positive nuclei fraction (CBRC013)	cleaved PARP positive nuclei fraction (CBRC014)	cleaved PARP positive nuclei fraction (CBRC016)	cleaved PARP positive nuclei fraction (CBRC017)	cleaved PARP positive nuclei fraction (COLO792)	cleaved PARP positive nuclei fraction (COLO800)	cleaved PARP positive nuclei fraction (COLO829)	cleaved PARP positive nuclei fraction (G361)	cleaved PARP positive nuclei fraction (IPC-298)	cleaved PARP positive nuclei fraction (IST-MEL1)	cleaved PARP positive nuclei fraction (LB2518-MEL)	cleaved PARP positive nuclei fraction (LOXIMVI)	cleaved PARP positive nuclei fraction (MEL-HO)
CS(=O)(=O)CCNCc1ccc(-c2ccc3ncnc(Nc4ccc(OCc5cccc(F)c5)c(Cl)c4)c3c2)o1 [lapatinib] + O=C(Nc1cccc(Cl)c1)Nc1ncc(CCNc2ncnc3ccsc23)s1 [SNS314] (first compound 0.8 µM, partner dose 0.0008 µM)	86.3%	74%	90%	118%	71.5%	71%	123%	83.9%	56.6%	227%	129%	61.1%	177%	163%	46.4%	60.3%	41.8%	169%	72.6%
Nc1nc(F)nc2c1ncn2[C@@H]1O[C@H](CO)[C@@H](O)[C@@H]1O [fludarabine] + NCC(=O)Nc1ccc(-n2nc(C(F)(F)F)cc2-c2ccc3c(ccc4ccccc43)c2)cc1 [OSU03012] (first compound 0.2 µM, partner dose 1 µM)	1800%	22.1%	133%	15400%	150%	96.2%	319%	86.2%	236%	99.5%	86.3%	108%	79.2%	32.1%	27.4%	222%	106%	78.1%	32.4%
CCCS(=O)(=O)Nc1ccc(F)c(C(=O)c2c[nH]c3ncc(Cl)cc23)c1F + Cn1cncc1[C@@](N)(c1ccc(Cl)cc1)c1ccc2c(c1)c(-c1cccc(Cl)c1)cc(=O)n2C [tipifarnib] (first compound 0.08 µM, partner dose 0.01 µM)	198%	199%	83.8%	197%	78.1%	267%	117%	241%	95.2%	79.9%	142%	133%	144%	72.9%	97.3%	91.7%	190%	35.9%	72.5%
CC(C)C[C@H](NC(=O)[C@H](Cc1ccccc1)NC(=O)c1cnccn1)B(O)O [Bortezomib] + CO[C@@H]1[C@H](N(C)C(=O)c2ccccc2)C[C@H]2O[C@]1(C)n1c3ccccc3c3c4c(c5c6ccccc6n2c5c31)C(=O)NC4 [Midostaurin] (first compound 0.001 µM, partner dose 0.08 µM)	230%	118%	156%	48.9%	65.9%	399%	139%	258%	885%	432%	68.2%	94.5%	380%	1090%	111%	312%	1030%	156%	79.7%
